# Measurements from patent US20140140925A1 (priority 2009, published 2014).
# Assay: general procedure: Fmoc solid-phase peptide synthesis; Wang resin loaded with Fmoc-L-Cys(Trt)-OH; PyBOP, DIPEA
# Conditions: conjugation step
substance,measurement,value
Pte-Glu-Asp-Arg-Asp-Asp-Cys-OH,conjugation yield,70%
